Target: the molecule itself
Assay: SEC

B1: PAX5-C20S-His6 (other)
chain: MDLEKNYPTPRTSRTGHGGVNQLGGVFVNGRPLPDVVRQRIVELAHQGVRPCDISRQLRVSHGCVSKILGRYYETGSIKPGVIGGSKPKVATPKVVEKIAEYKRQNPTMFAWEIRDRLLAERVCDNDTVPSVSSINRIIRTKVQQPPNQPVPASSHSIVSTGSVTQVSSVSTDSAGSSYSISGILGITSPSADTNKRKRDEASLQTGNHSNGPTDLSMKGGASTTSTTPTPTPSSTSTSRPVPTAQLSPTEISAVRQLIAGYRESAAFLLRSADELENLILQQN
In the case of B1, the “stoichiometry N” value is reported as 4.
